Experimental data reported in article PMC4506499.
No constants are given. Whether binding was seen depends on the method and setting.

Biological target: Human Upf1 helicase domain (Upf1-HD, 295-914 amino acids) (human) (UniProt Q92900)
Experiment: pull-down; calmodulin-binding peptide-Upf1-HD as bait, Upf1-HD as prey; 'under our experimental conditions'; details only in Supplementary Fig. 3; both purified

binding: no binding
B1: Human Upf1 helicase domain (Upf1-HD, 295-914 amino acids) (domain or fragment, UniProt Q92900-2 295-914)
chain: RYEDAYQYQNIFGPLVKLEADYDKKLKESQTQDNITVRWDLGLNKKRIAYFTLPKTDSDMRLMQGDEICLRYKGDLAPLWKGIGHVIKVPDNYGDEIAIELRSSVGAPVEVTHNFQVDFVWKSTSFDRMQSALKTFAVDETSVSGYIYHKLLGHEVEDVIIKCQLPKRFTAQGLPDLNHSQVYAVKTVLQRPLSLIQGPPGTGKTVTSATIVYHLARQGNGPVLVCAPSNIAVDQLTEKIHQTGLKVVRLCAKSREAIDSPVSFLALHNQIRNMDSMPELQKLQQLKDETGELSSADEKRYRALKRTAERELLMNADVICCTCVGAGDPRLAKMQFRSILIDESTQATEPECMVPVVLGAKQLILVGDHCQLGPVVMCKKAAKAGLSQSLFERLVVLGIRPIRLQVQYRMHPALSAFPSNIFYEGSLQNGVTAADRVKKGFDFQWPQPDKPMFFYVTQGQEEIASSGTSYLNRTEAANVEKITTKLLKAGAKPDQIGIITPYEGQRSYLVQYMQFSGSLHTKLYQEVEIASVDAFQGREKDFIILSCVRANEHQGIGFLNDPRRLNVALTRARYGVIIVGNPKALSKQPLWNHLLNYYKEQKVLVEGPLNNLRESLMQFS
